Results: publication PMC4598156
Results are given in words; binding and its absence hold for the method and conditions named. Binding seen in cells or lysates may run through a third protein. Some entries that bind do so weakly or less than the wild type.

Protein sequences, listed by entry. Tags and fused reporters are not part of them. Residues count along the entry.
UniProt Q63495, residues 23-402: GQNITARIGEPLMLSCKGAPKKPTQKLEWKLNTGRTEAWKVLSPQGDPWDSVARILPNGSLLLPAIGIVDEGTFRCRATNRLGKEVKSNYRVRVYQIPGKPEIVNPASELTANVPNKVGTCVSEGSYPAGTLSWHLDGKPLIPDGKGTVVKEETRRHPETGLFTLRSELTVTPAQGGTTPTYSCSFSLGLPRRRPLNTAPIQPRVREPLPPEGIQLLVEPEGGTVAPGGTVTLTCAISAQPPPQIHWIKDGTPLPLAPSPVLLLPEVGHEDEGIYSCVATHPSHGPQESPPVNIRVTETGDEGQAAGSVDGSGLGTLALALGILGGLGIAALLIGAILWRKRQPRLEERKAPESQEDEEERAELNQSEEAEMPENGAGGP

Target: T1, mitochondrial transcription factor A (TFAM) (rat (endogenous in Sprague Dawley rat heart)) (UniProt Q91ZW1)
T1 sequence: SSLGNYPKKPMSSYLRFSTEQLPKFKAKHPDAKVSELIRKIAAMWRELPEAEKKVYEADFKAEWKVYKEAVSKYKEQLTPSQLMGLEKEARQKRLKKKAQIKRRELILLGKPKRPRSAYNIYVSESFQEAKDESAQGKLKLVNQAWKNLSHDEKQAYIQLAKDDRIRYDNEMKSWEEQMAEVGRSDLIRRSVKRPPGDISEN
Assay: co-IP; 0.5 mg total heart tissue lysate precipitated with anti-TFAM at 4°C overnight, protein A/G plus agarose, washed in cold PBS, Western blot for RAGE; hearts of sham rats, septic rats and septic rats given Mito-Vit-E

binding: binds
Substance: receptor of advance glycation end products (RAGE) (from UniProt Q63495 23-402)
